No constants are given. Whether binding was seen depends on the method and setting. In cells and extracts the contact can be indirect. Some entries that bind do so weakly or less than the wild type.
Legend:
[1] = biological target: Flag-p300 (histone acetyltransferase p300, from pCDNA3-2×Flag-p300) (UniProt Q09472); test: co-IP; Flag-tagged and Myc-tagged plasmids co-transfected into HC-OA cells, 48 h, lysed, anti-Flag agarose and anti-c-Myc agarose 4°C 2 h, four washes with 1×RIPA; blots with anti-Flag and anti-Myc
[2] = biological target: Flag-CtBP2 (C-terminal-binding protein 2, from pcDNA3-2×Flag-CtBP2) (human) (UniProt P56545); test: as above
[3] = biological target: Flag-CtBP2 (C-terminal-binding protein 2, from pcDNA3-2×Flag-CtBP2) (human) (UniProt P56545); test: co-IP; HC-OA cells transfected with pcDNA3-2×Flag-CtBP1 or -CtBP2, lysed in 1×RIPA buffer with protease inhibitors, anti-Flag agarose 4°C 2 h, four washes with 1×RIPA; blots with anti-p300, anti-c-Jun, anti-c-FOS, anti-CtBP1, anti-CtBP2; repeated in p300-KD cells (much less p300 and AP1 subunits pulled down)

Amino acid sequences for entries named in this document (tags omitted).
UniProt P05412: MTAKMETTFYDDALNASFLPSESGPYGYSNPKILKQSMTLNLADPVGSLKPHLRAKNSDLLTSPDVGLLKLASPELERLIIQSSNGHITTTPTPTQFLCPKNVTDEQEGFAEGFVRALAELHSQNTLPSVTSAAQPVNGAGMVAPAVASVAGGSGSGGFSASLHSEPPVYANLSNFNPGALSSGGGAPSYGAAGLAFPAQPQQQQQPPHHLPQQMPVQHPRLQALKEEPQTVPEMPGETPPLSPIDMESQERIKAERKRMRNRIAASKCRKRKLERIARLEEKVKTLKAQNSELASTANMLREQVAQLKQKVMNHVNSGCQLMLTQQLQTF

binding [1]	binding [2]	binding [3]	Substance
binds	no binding	–	Myc-c-FOS (AP1 subunit, from pCDNA3-6×Myc-c-FOS) (from UniProt P01100 1-380)
binds	–	–	Myc-c-Jun (AP1 subunit, from pCDNA3-6×Myc-c-Jun) (from UniProt P05412 1-331)
–	binds	–	Myc-p300 (histone acetyltransferase p300, from pCDNA3-6×Myc-p300) (from UniProt Q09472 1-2414)
–	–	binds	p300 (histone acetyltransferase p300), endogenous (from UniProt Q09472 1-2414)

— PMC7053340
